Experimental data: PubChem BioAssay AID504804 (Drosophila RNAi Screening Center, 2011)
In all, the deposit lists about 19,000 reagents; shown is an unselected part of those that have a named target and a result. Over the whole deposit, 47 (0.25%) are marked active. 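Signals are raw, not normalised; exact z-scores behind calls not deposited; actives needed confirmation, so some wells reaching 2 SD are inactive.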 Reagents against one gene are numbered here. Names joined by + are all predicted targets of the reagent.

Purpose: 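Knock-downs shielding fly cells from apoptosis caused by DNA damage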 (primary screen)
Cell system: Drosophila Kc cells
Knock-down reagent: long dsRNA against Drosophila genes, 0.5 µg dsRNA per well
Timing: 96 h (48 h knock-down, then 48 h drug)
Conditions: doxorubicin 5 µg/ml for 48 h, added 48 h after dsRNA
Measured: 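Viability measured as cellular ATP by luminescence after 48 h knock-down then 48 h doxorubicin at 5 µg/ml; unnormalised plate counts for each replicate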
Direction: raw ATP luminescence: higher = more viable cells, protection from doxorubicin
Call rule: 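Active when both duplicate wells lie at least 2 SD above the plate mean and protection is confirmed by rescreening and independent dsRNAs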

target	dsRNA no.	raw ATP luminescence, replicate 1	raw ATP luminescence, replicate 2	Call
Keap1	1	35157	40203	inactive
CG13392	1	40717	64583	inactive
CG17329	1	67950	80643	inactive
E2f1 (E2F transcription factor 1)	1	32920	26700	inactive
CG5866	1	95050	61210	inactive
lok (loki)	1	87453	48637	inactive
CG12343	1	36423	77520	inactive
CG13137	1	46720	57973	inactive
Cyp9f3 (Cytochrome P450 9f3)	1	57917	53467	inactive
Ir94g (Ionotropic receptor 94g)	1	63280	60730	inactive
psd (palisade)	1	21653	40780	inactive
CG33234	1	1.44e5	1.45e5	inactive
CG13306	1	93297	1.01e5	inactive
CG5281	1	51497	44947	inactive
mld (molting defective)	1	1.06e5	1.27e5	inactive
mld (molting defective)	2	58340	46080	inactive
snRNA:U1:95Cc + snRNA:U1:95Cb	1	1.64e5	1.87e5	inactive
CG6431	1	41960	69940	inactive
Nopp140	1	62180	59193	inactive
Dis3	1	45043	40990	inactive
Hsc70-3 (Heat shock protein 70 cognate 3)	1	2.20e5	2.29e5	inactive
RpS23 (Ribosomal protein S23)	1	44423	57080	inactive
psh (persephone)	1	3.47e5	3.51e5	inactive
Kat60 (Katanin 60)	1	65160	70927	inactive
CG10505	1	59123	66427	inactive
CSN1b (COP9 signalosome subunit 1b)	1	18563	23863	inactive
CG32107	1	71747	82833	inactive
Rad60	1	72960	68860	inactive
CG14692	1	55210	53780	inactive
mh (maternal haploid)	1	2.90e5	3.08e5	inactive
escl	1	1.17e5	86317	inactive
Cpr49Ab (Cuticular protein 49Ab)	1	84963	96567	inactive
esg (escargot)	1	73343	61527	inactive
HBS1	1	99737	79970	inactive

In a second layout: results already given
| target | dsRNA no. | raw ATP luminescence, replicate 1 | raw ATP luminescence, replicate 2 | Call |
| --- | --- | --- | --- | --- |
| RpS23 (Ribosomal protein S23) | 1 | 44423 | 57080 | inactive |
| psh (persephone) | 1 | 3.47e5 | 3.51e5 | inactive |
| Kat60 (Katanin 60) | 1 | 65160 | 70927 | inactive |
| CG10505 | 1 | 59123 | 66427 | inactive |

The listing continues.
target	dsRNA no.	raw ATP luminescence, replicate 1	raw ATP luminescence, replicate 2	Call
Hip1 (Huntingtin interacting protein 1)	1	38803	43107	inactive
mei-9 (meiotic 9)	1	43420	47690	inactive
shams	1	62350	65630	inactive
CG42541	1	29830	32860	inactive
CG42541	2	10030	11970	inactive
CG42541	3	29020	48170	inactive
CG10232	1	55380	71820	inactive
sced (scrambled)	1	65463	56223	inactive
Amacr (Alpha-methylacyl-CoA racemase)	1	78217	71997	inactive
RpL24-like (Ribosomal protein L24-like)	1	66157	50940	inactive
spen (split ends)	1	93190	78700	inactive
CG33159	1	2.03e5	2.36e5	inactive
Teh1 (tipE homolog 1)	1	58520	52183	inactive
Bdbt (Bride of doubletime)	1	52940	47780	inactive
Alg14 (ALG14, UDP-N-acetylglucosaminyltransferase subunit)	1	3.36e5	3.13e5	inactive
Rpt6R (Regulatory particle triple-A ATPase 6-related)	1	52770	42430	inactive
CG14856	1	81120	66430	inactive
mthl5 (methuselah-like 5)	1	49990	50253	inactive
ct (cut)	1	18860	19940	inactive
CG17486	1	61347	58537	inactive
CG32199	1	60333	52333	inactive
Obp83ef (Odorant-binding protein 83ef)	1	60207	72283	inactive
velo (veloren)	1	29770	42527	inactive
velo (veloren)	2	35800	32157	inactive
CG13300	1	59517	74843	inactive
Pop2	1	39917	39890	inactive
CG32259	1	1.86e5	1.26e5	inactive
CG42820 + CG42819	1	47187	58793	inactive
CG42820 + CG42819	2	42080	69627	inactive
CG42380 + CG42379 + PIG-M + 1 more	1	67673	50360	inactive
CG42380 + CG42379 + PIG-M + 1 more	2	77863	89297	inactive
emei	1	80007	57160	inactive
CG2865	1	54080	83950	inactive
PSMG1 (Proteasome assembly chaperone 1)	1	75203	29347	inactive
CG43127	1	1.99e5	1.92e5	inactive
CkIIalpha-i1 (CKII-alpha subunit interactor-1)	1	53937	46457	inactive
CG12375	1	99483	71393	inactive
CG10663	1	52053	58673	inactive
pch2 (pachytene checkpoint 2)	1	65290	54080	inactive
unc79 (uncoordinated 79)	1	43020	37237	inactive
Polr3C (RNA polymerase III subunit C)	1	40293	23243	inactive
Sgf29 (SAGA-associated factor 29kDa)	1	72083	63893	inactive
sbb (scribbler)	1	1.80e5	1.31e5	inactive
CG17855	1	43800	64440	inactive
IFT46 (Intraflagellar transport 46)	1	45473	43203	inactive
CG44774	1	56040	57170	inactive
CG17186	1	70300	54030	inactive
CG32374	1	86730	81607	inactive
CG15036	1	47410	53230	inactive
CG10365	1	47670	66140	inactive
